Test results taken from patent WO2024071112A1 (dated 2024).
These are yes or no findings as the source states them, for the method shown. Some binding calls cover weakened binding; strength is not graded here. Tags and fused reporters may be left off the sequences shown.

Protein sequences, listed by entry. Tags and fused reporters are not part of them. Residues count along the entry.
UniProt P00747, residues 20-810: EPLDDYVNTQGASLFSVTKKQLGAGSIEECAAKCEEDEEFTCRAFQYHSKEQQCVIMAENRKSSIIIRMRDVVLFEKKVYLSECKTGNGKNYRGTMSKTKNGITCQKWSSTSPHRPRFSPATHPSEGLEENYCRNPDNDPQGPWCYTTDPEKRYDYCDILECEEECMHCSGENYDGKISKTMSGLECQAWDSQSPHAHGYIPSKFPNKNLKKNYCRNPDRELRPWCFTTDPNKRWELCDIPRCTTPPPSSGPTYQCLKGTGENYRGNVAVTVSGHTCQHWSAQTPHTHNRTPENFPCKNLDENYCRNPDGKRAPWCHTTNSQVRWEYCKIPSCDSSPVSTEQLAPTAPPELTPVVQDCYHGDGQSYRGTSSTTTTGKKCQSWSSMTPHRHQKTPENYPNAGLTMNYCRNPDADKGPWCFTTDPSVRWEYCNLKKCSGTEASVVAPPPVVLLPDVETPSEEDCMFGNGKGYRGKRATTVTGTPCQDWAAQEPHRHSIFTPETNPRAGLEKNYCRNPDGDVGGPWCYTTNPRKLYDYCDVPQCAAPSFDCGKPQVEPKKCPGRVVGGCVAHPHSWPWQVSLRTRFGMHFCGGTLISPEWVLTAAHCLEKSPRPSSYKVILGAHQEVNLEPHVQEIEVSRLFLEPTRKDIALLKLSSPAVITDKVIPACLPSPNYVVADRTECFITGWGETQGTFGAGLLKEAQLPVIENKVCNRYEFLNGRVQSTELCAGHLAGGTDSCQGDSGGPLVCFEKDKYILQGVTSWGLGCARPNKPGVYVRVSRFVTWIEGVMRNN

Target: T1, human plasminogen (human, UniProt P00747 20-810, limits assumed)
T1 construct: also called Plg
Assay: ELISA, plate-coated human plasminogen, His-tagged VK and VH peptides bridged and detected by rabbit anti-His tag IgG and HRP anti-rabbit IgG, A450

binding	Binder
binds	VKc1+VHc3 (His-tagged VKc1 domain peptide combined with His-tagged VHc3 domain peptide) (protein) VL: RSDIKMTQSPSSMYASLGERVTITCKASQDINSYLSWFQQKPGKSPKTLIYRANRLVDGVPSRFSGSGSGQDYSLTISSLEYEDMGIYYCLQYDEFPFTFGSGTKLEIKDIPWQGLNDIFEAQKIEWHGSHHHHHH VH: RSEVQLQQSGAELARPGASVKLSCKASGYTFTSYGISWVKQRTGQGLEWIGEIYPNTYYNEKFKGKATLTEDKSSSTAYMELRSLTSEDSAVYFCARHVTVVATDYWGQGTTLTVSSDIPWQGLNDIFEAQKIEWHGSHHHHHH
binds	VKc5+VHc4 (His-tagged VKc5 domain peptide combined with His-tagged VHc4 domain peptide) (protein) VL: RSDIQMTQSPASLSVSVGETVTITCRASENIYSNLAWYQQKQGKSPQLLVYAATNLADGVPSRFSGSGSGTQYSLKINSLQSEDFGSYYCQHFWGTPYTFGGGTKLEIKDIPWQGLNDIFEAQKIEWHGSHHHHHH VH: RSEVQLQQSGAELVRPGTSVKMSCKASIYPGGGYAIGWAKQRPGHGLEWIGDIYPGGGYANYNENFKGKATLTADKSSNTAYMQFSSLTSEDSAIYYCARFNYGNHWYFDVWGTGTTVTVSSDIPWQGLNDIFEAQKIEWHGSHHHHHH
